Assay results: PMC10163288
The list shows a part of the results.

B1: il10ra_site1_sap_8_mot_HHH_b2_05548_000000224_0001_41_54_H_._HHH_b1_06396_0001_0000400051_0000002_0_0001 (protein)
chain: SSSSDRRERIWELLKRALELRAEGNPEEAREVVEEAEELAEEANDMLLEYQIKFLQHAIEGSSSS
B2: il10ra_site1_normal_mot_HHH_b2_07144_000000289_0001_1_18_H_._HHH_b2_05497_0001_0000100003_0000001_0 (protein)
chain: SSSSSEESQRLYKLSRKAAELLREGDPEEAREVLEEALELAEELNNFNFLFSLRHLLRDASSSSS
B3: il10ra_site1_sap_30_mot_HHH_b2_02053_af2_000000006_0001_3_19_H_._HHH_b2_06177_0001_0000100006_0000002_0_0001_af2pred_dldesign_0_af2pred (protein)
chain: SPEIEAIRALLKENLSLACAALAKLLAESGNQEDIALARELARLLFEDPERAKELAEKLLAELAK
B4: il10ra_site1_sap_17_mot_HHH_b2_02053_af2_000000006_0001_3_19_H_._HHH_b2_00418_af2_0001_0000600027_0000001_0_0001 (protein)
chain: SSSSDELTQEVFRLLREAVELDSDGNHEEAEEVLEEAERLAKEANNVLLEIQVEFLQRLLGSSSS
B5: il10ra_site1_sap_15_mot_ems_3hM_3349_000000275_0001_25_42_H_._7f845fc392f084dc2c3019ce91433427_0001_1_0001_0000100003_0000002_0_0001_af2pred_0001 (protein)
chain: SDEWEELEELLRRLLEEAERNNDPFVKRLAHVALDLLRRATEENDEELLRAVKLALRDIEASCSS
B6: il10ra_site1_sap_23_mot_HHH_b1_02492_000000051_0001_1_21_H_._HHH_b2_05780_af2_0001_0000100001_0000001_0_0001 (protein)
chain: SSSSDDREELEELLEEIQRLLEEGDPERALELLQEALRFAFQLGDEEILQLLWELAKRVASSSSS
B7: il10ra_site1_sap_16_mot_HHH_b2_00800_af2_000000047_0001_1_20_H_._HHH_b1_01243_0001_0000600058_0000001_0_0001 (protein)
chain: SSSSSSEEREEVEELLEEAEHVDDERELAQVLVEALRFAWEGQDEEALRLVWEVVKKLLSSSSSS
B8: il10ra_site1_normal_mot_HHH_b2_02116_af2_000000165_0001_41_55_H_._HHH_b1_00240_af2_0001_0000100001_0000001_0_af2pred_0001 (protein)
chain: SSSSDEELKKEAAELFYEAARLLKEGDEEQVKELIERIEELAKEGNDHLIEAIARLLKDALSSSS
B9: il10ra_site1_sap_24_mot_HHH_b2_02053_af2_000000006_0001_3_19_H_._HHH_b2_00552_0001_0000400015_0000001_0_0001 (protein)
chain: DVEQEILRLVYQLNDPELLRLLWEVFRLLAETGDPRLEELLKEVLELLENGDPEEAEEVLKEAVK
B10: il10ra_site1_sap_14_mot_HHH_b2_01447_af2_000000258_0001_1_20_H_._HHH_b1_06879_af2_0001_0000900063_0000002_0_0001 (protein)
chain: SSSSDEEERELYELIKEIARLLIRGNPEEAKKLIEELEELAKELGDEAAEEAVEILKQAVDSSSS
B11: il10ra_site1_normal_mot_802863e75c239dc72d0ffd0be86c571b_0001_1_000000009_0001_36_49_H_._HHH_b1_03230_0001_0000300033_0000002_0 (protein)
chain: SSSSDEEFELLRRAHEELKRLLEEGNPEEAERLFEEVERELEEAGNFVAVFALRHTFRLNSSSSS
B12: il10ra_site1_sap_9_mot_HHH_b1_06789_af2_000000041_0001_1_20_H_._HHH_b1_03310_0001_0000100002_0000002_0_0001 (protein)
chain: SSSSDQEVFEAVEKAIERAIQLRREGDPEEARRLLEEAIELAEENGSRLAVLQLRWLLERLSSSS
B13: il10ra_site1_sap_22_mot_HHH_b1_02492_000000051_0001_1_21_H_._HHH_b1_01194_0001_0000200029_0000001_0_0001 (protein)
chain: SSSSSSDLYELARQLLELAFRHRDWELLHEVWRAYREAAEHDDPRLLEELLEEAEEELSSSSSSS
B14: il10ra_site1_sap_7_mot_HHH_b2_01447_af2_000000258_0001_1_20_H_._HHH_b2_03513_af2_0001_0000100003_0000001_0_0001 (protein)
chain: SSSSDDEVLELSVEAFRLALRGDPEKAQEVLEEALELAEELGNERAAEMIENMLKILRRKSSSSS
B15: il10ra_site1_normal_mot_HHH_b2_08186_000000021_0001_43_56_H_._HHH_b1_03152_0001_0000100002_0000001_0 (protein)
chain: SSSSSEEEELEELLEELEQLLREGDRERFARVLQEALRLAFRASNEEILRRLWELLQELASSSSS
B16: il10ra_site1_normal_mot_HHH_b2_02337_000000026_0001_38_52_H_._HHH_b1_06658_0001_0000100021_0000001_0 (protein)
chain: SSSSSDREERIEELLREAERLAEEGNPEEATRLLAEAVRLIFELGDEELLEELWELVKRLSSSSS
B17: il10ra_site1_sap_13_mot_HHH_b1_07768_000000240_0001_18_35_H_._HHH_b2_06480_0001_0000100005_0000001_0_0001_af2pred_0001 (protein)
chain: SSSSDEEYERLREALEEVIELLEEGNPEEARKVVEELERLAEERNDFLVELMARILKRDIESSSS
B18: il10ra_site1_sap_20_mot_HHH_b1_03531_000000273_0001_41_54_H_._HHH_b2_04967_0001_0000300019_0000001_0_0001 (protein)
chain: SSSSSEVEELYRLIRELNELLHEGDEEKVEELAEEAKELAEKLNSRVLLVLIEWLLRRFNSSSSS
B19: il10ra_site1_normal_mot_HHH_b2_08186_000000021_0001_43_56_H_._HHH_b2_06358_af2_0001_0000600010_0000001_0 (protein)
chain: SSSSSSDEVEEEVEELLREAEKVDREELLRLLLEALRLVFEAGNKELLQEIWEVLRRLSSSSSSS
B20: il10ra_site1_sap_20_mot_HHH_b1_06789_af2_000000041_0001_1_20_H_._HHH_b2_06658_af2_0002_0000100002_0000001_0_0001 (protein)
chain: SSSSSEDEEYVELALRFAQWLAEEGDPEAARHFLEAAEDIARNGNNPELEELVEEVKEELSSSSS
B21: il10ra_site1_sap_16_mot_HHH_b1_02665_000000293_0001_1_18_H_._HHH_b1_07993_0001_0000300023_0000001_0_0001 (protein)
chain: SSSSNEKFEHVMEAIEEIMKLINDGNPEEARELAEKLEELIEELGNRLAKWQLEFVLKHTSSSSS
B22: il10ra_site1_normal_mot_HHH_b1_01821_000000158_0001_23_39_H_._HHH_b1_04578_0001_0000200009_0000001_1 (protein)
chain: SSSSSEFQRLAQRAVRLAFRLSDQEVLQRIWELFRRYVEEGDPRLEEELEELLEELEERGSSSSS
B23: il10ra_site1_sap_16_mot_8756ee2cf497b5429c717dfc0c0bcfd6_0001_000000186_0001_1_13_H_._HHH_b1_03338_0001_0000100002_0000003_0_0001 (protein)
chain: SSSSTLEWSVKFMLEIVEELLERGDKEKAEHLLEALLRHLKEAGDPELLREVEELLEEVRKSSSS
B24: il10ra_site1_sap_19_mot_HHH_b1_03763_000000209_0001_22_38_H_._HHH_b2_01352_0001_0000100003_0000002_0_0001_af2pred_0001 (protein)
chain: SSSSSDEAEKAIEWLLRAAKQLDDEEVVKLAIRDAEVAAEALGNEELVEELRQILEELRSSSSSS

The binders below were run against il10ra, Q13651 (assay: yeast display titration).

Apparent Kd, inactive:
B1 no binding seen
B2 > 1390 nM
B3 no binding seen
B4 no binding seen
B5 no binding seen
B6 no binding seen
B7 no binding seen
B8 no binding seen
B9 no binding seen
B10 no binding seen
B11 no binding seen
B12 no binding seen
B13 no binding seen
B14 no binding seen
B15 no binding seen
B16 no binding seen
B17 no binding seen
B18 > 1320 nM
B19 no binding seen
B20 no binding seen
B21 no binding seen
B22 no binding seen
B23 no binding seen
B24 no binding seen

Random excerpt: two entries already listed, in no set order.
Apparent Kd, inactive:
B16 no binding seen
B2 > 1390 nM
